Laboratory results taken from patent US4734416A, “Pharmaceutically useful carbostyril derivatives” (Otsuka Pharmaceutical Co., Ltd., priority 1978, dated 1988).

Assay: in vivo
Conditions: mouse, iv
Description: Mice of ddy-strain having 20-22 g of body weight are used. One test group consists of 10 mice.
Oral administration: Compound to be tested is suspended in 1% Gummi Arabicum physiological NaCl aqueous solution.
Intravenuous administration: Compound to be tested is dissolved in 50% propyleneglycol aqueous solution.

SMILES: CN1C(=O)CN=C(c2ccccc2)c2cc(Cl)ccc21 [Diazepam, reference compound]
- LD50 (female mice): 58 mg/kg
- LD50 (male mice): 59 mg/kg
